# Measurements reported in US20020058020A1, “Isolated amphiphilic peptides derived from the cytoplasmic tail of viral envelope proteins” (priority 1999, published 2002).
# Tested on: virions from transfected 293T cells
# Experiment: Envelope protein incorporation into viral particles (Western Blot)
# Conditions: Western Blots n = 3-5, anti-p30, gp70, p15E
substance,measurement,value
WT: wild type MoMuLV ecotropic envelope protein,Particle Incorporation,++++
